Source: article PMC5915175
Construct, isoform or probe ends are uncertain for at least one entry. At least one result comes from cells or an extract, where the contact may be indirect. For part of these data: A negative result means that nothing was seen under these conditions. For part of these data: Tags and fusion partners may be left off the protein sequences shown. For part of these data: At least one verdict rests on a figure or table, not on a statement of the authors.

Columns and labels:
Assay in all cases: EMSA, supershift
IRF4 R98W (Homo sapiens) = biological target: T1, IRF4 R98W (Homo sapiens) (UniProt Q15306); details: 10 ug HEK293T nuclear lysate (nuclear lysis buffer 20 mM Hepes pH 7.9, 0.4 M NaCl, 1 mM EDTA, 1 mM EGTA, 25% glycerol) with 32P probe, 30 min on ice; protein in a lysate after overexpression; residues 1-451; label: 32P (dATP, Klenow fill-in)
T1 sequence (looked up): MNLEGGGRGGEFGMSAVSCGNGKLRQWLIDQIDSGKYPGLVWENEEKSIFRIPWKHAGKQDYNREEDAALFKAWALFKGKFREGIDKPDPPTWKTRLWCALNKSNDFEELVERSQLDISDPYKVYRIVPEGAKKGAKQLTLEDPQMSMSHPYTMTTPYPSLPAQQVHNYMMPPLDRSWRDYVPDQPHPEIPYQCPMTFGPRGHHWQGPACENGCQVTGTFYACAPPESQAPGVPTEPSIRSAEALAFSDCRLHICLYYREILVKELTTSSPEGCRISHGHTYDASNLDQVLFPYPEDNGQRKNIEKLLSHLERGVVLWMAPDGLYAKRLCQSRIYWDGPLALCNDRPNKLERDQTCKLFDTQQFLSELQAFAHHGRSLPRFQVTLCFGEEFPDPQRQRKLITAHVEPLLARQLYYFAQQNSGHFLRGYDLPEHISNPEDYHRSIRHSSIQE

IRF4 R98W + PU.1 = details: PU.1 and IRF4 R98W cotransfected, IRF4-PU.1 complex abolished; 10 ug HEK293T nuclear lysate (nuclear lysis buffer 20 mM Hepes pH 7.9, 0.4 M NaCl, 1 mM EDTA, 1 mM EGTA, 25% glycerol) with 32P probe, 30 min on ice; protein in a lysate after overexpression; label: 32P (dATP, Klenow fill-in)
IRF4 WT + PU.1 = details: PU.1 and IRF4 WT cotransfected, anti-IRF4 supershift, cold probe competition; 10 ug HEK293T nuclear lysate (nuclear lysis buffer 20 mM Hepes pH 7.9, 0.4 M NaCl, 1 mM EDTA, 1 mM EGTA, 25% glycerol) with 32P probe, 30 min on ice; protein in a lysate after overexpression; label: 32P (dATP, Klenow fill-in)

Sequence: GATCGGGAAAGGGAAACCGAAACTGAA (double strand) [ISRE probe (ISG15 promoter-based)]
- binding result (IRF4 R98W (Homo sapiens)): no binding

Sequence: GATCGCTCTTTATTTTCCTTCACTTTGGTTAC (double strand) [lambdaB probe (EICE)]
- binding result (IRF4 R98W + PU.1): no binding
- binding result (IRF4 WT + PU.1): binds
